Measured values from patent publication US11524934B2, “Phenylamine compounds” (PI INDUSTRIES LTD., priority 2017, dated 2022).
Some results were stated once for a whole list of compounds, not compound by compound. For at least one compound, name, drawing or mass did not settle the structure.

What was measured:
[1] = system: Botrytis cinerea; assay: Botrytis cinerea (Gray mold) in vitro test, radial growth on Potato Dextrose Agar; details: 300 ppm; radial growth after seven days, 22° C., 90% Relative Humidity; compared to the untreated check
[2] = system: Septoria lycopersici; assay: Septoria lycopersici (Leaf spot of tomato) in vitro test, radial growth on Potato Dextrose Agar; details: 300 ppm; radial growth after seven days, 25° C., 70% Relative Humidity; compared to the untreated check
[3] = system: Alternaria solani; assay: Alternaria solani (early blight of tomato/potato) in vitro test, radial growth on Potato Dextrose Agar; details: 300 ppm; radial growth after seven days, 25° C., 60% Relative Humidity; compared to the untreated check
[4] = system: Rhizoctonia solani; details: 300 ppm; radial growth after seven days, 25° C., 60% Relative Humidity; compared to the untreated check

Measured: control

CCN(C)C=Nc1cc(C)c(C(=O)CSc2ccc(OC)cc2)cc1C [Compound 7, N-ethyl-N′-(4-(2-((4-methoxyphenyl)thio)acety1)-2,5-dimethylphenyl)-N-methylformimidamide]
more than 70%: all assays above
